Laboratory results published in patent US20230365684A1.
No constants are given. Whether binding was seen depends on the method and setting. Some entries that bind do so weakly or less than the wild type.

Amino acid sequences for entries named in this document (tags omitted). A change or cut given only in a name is not applied to a line headed by its entry. Residues count along the entry.
UniProt P20138: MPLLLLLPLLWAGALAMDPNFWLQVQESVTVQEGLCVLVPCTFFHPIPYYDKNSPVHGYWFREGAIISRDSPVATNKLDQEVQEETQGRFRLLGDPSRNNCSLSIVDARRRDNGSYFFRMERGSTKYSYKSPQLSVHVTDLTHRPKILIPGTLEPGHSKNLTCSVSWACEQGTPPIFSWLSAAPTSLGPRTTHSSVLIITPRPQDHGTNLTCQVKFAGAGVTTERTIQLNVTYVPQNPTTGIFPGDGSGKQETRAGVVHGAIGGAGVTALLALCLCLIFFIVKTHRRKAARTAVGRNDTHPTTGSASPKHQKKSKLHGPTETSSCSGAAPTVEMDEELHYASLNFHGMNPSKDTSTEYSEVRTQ
human CD33 on cells (MOLM-13, Kasumi-1, OCI-AML-3, Kasumi-3): residues 18-364 of P20138
CD33 plated on 96 well plates (binding ELISA of Example 20): residues 18-259 of P20138

How the values were obtained:
[1] = biological target: CD33 plated on 96 well plates (binding ELISA of Example 20) (UniProt P20138); experiment: ELISA on plated CD33, E. coli supernatant heated at 55/60/65 °C, luminescence as percent of RT
[2] = biological target: human CD33 on cells (MOLM-13, Kasumi-1, OCI-AML-3, Kasumi-3) (human) (UniProt P20138); experiment: flow cytometry on MOLM-13 cells, 4 °C, detection with PE goat F(ab')2 anti-human IgG-Fc
[3] = biological target: human CD33 on cells (MOLM-13, Kasumi-1, OCI-AML-3, Kasumi-3) (human) (UniProt P20138); experiment: flow cytometry on Kasumi-1 cells, 4 °C, detection with PE goat F(ab')2 anti-human IgG-Fc [contd]
[4] = biological target: human CD33 on cells (MOLM-13, Kasumi-1, OCI-AML-3, Kasumi-3) (human) (UniProt P20138); experiment: flow cytometry on OCI-AML-3 cells, 4 °C, detection with PE goat F(ab')2 anti-human IgG-Fc [contd]
[5] = biological target: human CD33 on cells (MOLM-13, Kasumi-1, OCI-AML-3, Kasumi-3) (human) (UniProt P20138); experiment: flow cytometry, Alexa Fluor 647-conjugated antibody incubated with cells at 37 °C and 4 °C for 2 to 24 hrs; cell line not named on the sheet [contd]

Binder	binding [1]	also measured
C33B1475VH1-12 (scFv) scFv: DIVMTQSPLSLPVTPGEPASISCRSSQSLLHSDGYNYLDWYLQKSGQSPQLLIYLGSYRASGVPDRFSGSGSGTDFTLKISRVEAEDVGIYYCMQVLQTPWTFGQGTKVEIKGGSEGKSSGSGSESKSTGGSEVQLVESGGGLVQPGGSLRLSCVVSGFTFSSYWMTWVRQAPGKGLEWVANIKQPGSERYYVDSVKGRFTISRDSAKNSLYLQMNSLRAEDTAVYYCAREVGYNWNQGGYFDYWGQGTLVTVSS	binds	–
C33B836.006 (antibody, V domains shown) VH: QVQLVQSGSELRKPGASVKVSCKASGYTFTNYAMNWVRQAPGQGLEWMGWINTNTGNPTYAQGFTGRFVFSLDTSVSSAYLQISSLKAEDTAMYYCATDRDRGTDYWGQGTLVTVSS VL: QSALTQPASVSGSPGQSITISCTGTSSDVGDYNYVSWYQQHPGKVPKLMIYDVSNRPSGVSNRFSGSMSGNTASLTISGLQAEDEADYYCSSYSSSSALEVFGGGTKLTVL	–	binding [2]: binds; binding [3]: binds; binding [4]: binds; binding [5]: binds

Now from value to binder, other results behind:

binding [1]	Binder	also measured
binds	C33B1475VH1-32 (scFv) scFv: DIVMTQSPLSLPVTPGEPASISCRSSQSLLHSDGYNYLDWYLQKSGQSPQLLIYLGSYRASGVPDRFSGSGSGTDFTLKISRVEAEDVGIYYCMQVLQTPWTFGQGTKVEIKGGSEGKSSGSGSESKSTGGSEVQLVESGGGLVQPGGSLRLSCVVSGFTFSSYWMTWVRQAPGKGLEWVANIKQLGSERYYVDSVKGRFTISRDSAKNSLYLQMNSLRAEDTAVYYCAREVGYNWNQGGYFDYWGQGTLVTVSS	–
binds	C33B1475VH1-27 (scFv) scFv: DIVMTQSPLSLPVTPGEPASISCRSSQSLLHSDGYNYLDWYLQKSGQSPQLLIYLGSYRASGVPDRFSGSGSGTDFTLKISRVEAEDVGIYYCMQVLQTPWTFGQGTKVEIKGGSEGKSSGSGSESKSTGGSEVQLVESGGGLVQPGGSLRLSCVVSGFTFSSYWMTWVRQAPGKGLEWVANIKQRGSERYYVDSVKGRFTISRDSAKNSLYLQMNSLRAEDTAVYYCAREVGYNWNQGGYFDYWGQGTLVTVSS	–
binds	C33B1475VH1-14 (scFv) scFv: DIVMTQSPLSLPVTPGEPASISCRSSQSLLHSDGYNYLDWYLQKSGQSPQLLIYLGSYRASGVPDRFSGSGSGTDFTLKISRVEAEDVGIYYCMQVLQTPWTFGQGTKVEIKGGSEGKSSGSGSESKSTGGSEVQLVESGGGLVQPGGSLRLSCVVSGFTFSSYWMTWVRQAPGKGLEWVANIKQNGSERYYVDSVKGRFTISRDSAKNSLYLQMNSLRAEDTAVYYCAREVGYNWNQGGYFDYWGQGTLVTVSS	–
